PubChem BioAssay AID1224828, NIAID, 2016

Test: 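Knock-downs that increase or decrease LPS-induced p65 nuclear translocation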 (primary screen)
Cells: mouse RAW264.7 G9 macrophage reporter cells (GFP-p65, Tnf promoter-mCherry)
Reagents: siRNA pool against mouse genes, 100 nM
Timing: 2 days siRNA transfection, then 40 min LPS before fixation
Treatment: LPS (Salmonella minnesota R595) at 10 ng/ml
Measured: 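Imaged p65 nuclear translocation ratio, normalised to the plate median, converted to robust z-scores and averaged across two replicates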
Scale: p65 translocation robust z-score: higher = more nuclear NF-kappaB p65 after LPS than the plate median; nuclear/cytoplasmic p65 ratio: higher = more nuclear NF-kappaB p65
Hit rule: 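Active if robust z is above 3.3 (negative regulators) or below -1.56, the Tlr4 control median (positive regulators); activity score 50 or more; control wells not called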
Calls: active = hit (p65 shift raised or lowered); inactive = no clear change
The whole screen tested about 17,000 reagents; shown is an unselected part. 762 of all reagents (4.5%) were called active. 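Active calls include both raised and lowered p65 entry, mostly lowered; wells with fewer than 50 cells lack a z-score.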 The raw values are shown without normalisation. A number with no mark means an inactive call. No sequences are given here.

What is on record for Smarcd3 (SWI/SNF related BAF chromatin remodeling complex subunit D3)?
p65 translocation robust z-score: 0.04; nuclear/cytoplasmic p65 ratio, rep 1: 1.58; nuclear/cytoplasmic p65 ratio, rep 2: 1.54; low cell count flag: enough cells to score

With Retreg3 (reticulophagy regulator family member 3), how do the results read?
p65 translocation robust z-score: 0.14; nuclear/cytoplasmic p65 ratio, rep 1: 1.49; nuclear/cytoplasmic p65 ratio, rep 2: 1.53; low cell count flag: enough cells to score

What is on record for Fam114a2 (family with sequence similarity 114, member A2)?
nuclear/cytoplasmic p65 ratio, rep 1: 1.16; nuclear/cytoplasmic p65 ratio, rep 2: 1.18; low cell count flag: fewer than 50 cells per well; well left out of scoring

With Lsm2, what was measured?
p65 translocation robust z-score: 1.43; nuclear/cytoplasmic p65 ratio, rep 1: 1.89; nuclear/cytoplasmic p65 ratio, rep 2: 1.8; low cell count flag: enough cells to score

How did the screen score B3galt4?
p65 translocation robust z-score: 0.41; nuclear/cytoplasmic p65 ratio, rep 1: 1.59; nuclear/cytoplasmic p65 ratio, rep 2: 1.64; low cell count flag: enough cells to score

With Prl2b1 (prolactin family 2, subfamily b, member 1), what was measured?
p65 translocation robust z-score: 0.26; nuclear/cytoplasmic p65 ratio, rep 1: 1.46; nuclear/cytoplasmic p65 ratio, rep 2: 1.21; low cell count flag: enough cells to score

For Rnd3 (Rho family GTPase 3), what was measured?
p65 translocation robust z-score: 1.52; nuclear/cytoplasmic p65 ratio, rep 1: 1.78; nuclear/cytoplasmic p65 ratio, rep 2: 1.68; low cell count flag: enough cells to score

What did the screen give for Wnt5b (WNT family member 5B)?
p65 translocation robust z-score: 0.97; nuclear/cytoplasmic p65 ratio, rep 1: 1.72; nuclear/cytoplasmic p65 ratio, rep 2: 1.57; low cell count flag: enough cells to score

What did the screen give for Atg3 (autophagy related 3)?
p65 translocation robust z-score: -2.33 (active); nuclear/cytoplasmic p65 ratio, rep 1: 1.14; nuclear/cytoplasmic p65 ratio, rep 2: 1.11; low cell count flag: enough cells to score

Which result is listed for Acr (acrosin prepropeptide)?
p65 translocation robust z-score: -0.04; nuclear/cytoplasmic p65 ratio, rep 1: 1.61; nuclear/cytoplasmic p65 ratio, rep 2: 1.61; low cell count flag: enough cells to score

An excerpt from above, reduced to “low cell count flag”.
B3galt4	enough cells to score
Prl2b1 (prolactin family 2, subfamily b, member 1)	enough cells to score
Rnd3 (Rho family GTPase 3)	enough cells to score

The listing continues.
What is on record for Rps12 (ribosomal protein S12)?
nuclear/cytoplasmic p65 ratio, rep 1: 1.3; nuclear/cytoplasmic p65 ratio, rep 2: 1.23; low cell count flag: fewer than 50 cells per well; well left out of scoring

For Hyal2 (hyaluronoglucosaminidase 2), what was measured?
p65 translocation robust z-score: -1.26; nuclear/cytoplasmic p65 ratio, rep 1: 1.43; nuclear/cytoplasmic p65 ratio, rep 2: 1.21; low cell count flag: enough cells to score

With Mkks (McKusick-Kaufman syndrome), what was measured?
p65 translocation robust z-score: 0.84; nuclear/cytoplasmic p65 ratio, rep 1: 1.53; nuclear/cytoplasmic p65 ratio, rep 2: 1.47; low cell count flag: enough cells to score

How did the screen score Kash5 (KASH domain containing 5)?
p65 translocation robust z-score: -2.38 (active); nuclear/cytoplasmic p65 ratio, rep 1: 1.39; nuclear/cytoplasmic p65 ratio, rep 2: 1.16; low cell count flag: enough cells to score

For Klk11 (kallikrein related-peptidase 11), what was measured?
p65 translocation robust z-score: 1.47; nuclear/cytoplasmic p65 ratio, rep 1: 1.54; nuclear/cytoplasmic p65 ratio, rep 2: 1.49; low cell count flag: enough cells to score

With Cxxc5 (CXXC finger 5), what does the deposit list?
p65 translocation robust z-score: 0.34; nuclear/cytoplasmic p65 ratio, rep 1: 1.61; nuclear/cytoplasmic p65 ratio, rep 2: 1.86; low cell count flag: enough cells to score

With Gm5111 (predicted gene 5111), what was measured?
nuclear/cytoplasmic p65 ratio, rep 1: 1.24; nuclear/cytoplasmic p65 ratio, rep 2: 1.59; low cell count flag: fewer than 50 cells per well; well left out of scoring

For Nudt9 (nudix hydrolase 9), what was measured?
p65 translocation robust z-score: 0.68; nuclear/cytoplasmic p65 ratio, rep 1: 1.88; nuclear/cytoplasmic p65 ratio, rep 2: 1.58; low cell count flag: enough cells to score

What did the screen give for Dhrs13 (dehydrogenase/reductase 13)?
p65 translocation robust z-score: 0.04; nuclear/cytoplasmic p65 ratio, rep 1: 1.41; nuclear/cytoplasmic p65 ratio, rep 2: 1.42; low cell count flag: enough cells to score

For Tfdp1 (transcription factor Dp 1), what was measured?
p65 translocation robust z-score: 0.08; nuclear/cytoplasmic p65 ratio, rep 1: 1.46; nuclear/cytoplasmic p65 ratio, rep 2: 1.6; low cell count flag: enough cells to score

For Ctrl (chymotrypsin-like), how do the results read?
p65 translocation robust z-score: -0.77; nuclear/cytoplasmic p65 ratio, rep 1: 1.44; nuclear/cytoplasmic p65 ratio, rep 2: 1.23; low cell count flag: enough cells to score
